Source: EPA's CvTdb concentration-time database

How the values were obtained:
Rat [1] = test: concentration in blood after dosing; conditions: 10 min; dosed: Benzophenone; 5 mg/kg; oral; Female; F344
Rat [2] = test: concentration in blood after dosing; conditions: 0.25 h; dosed: Benzophenone; 5 mg/kg; oral; Female; F344
Rat [3] = test: concentration in blood after dosing; conditions: 0.5 h; dosed: Benzophenone; 5 mg/kg; oral; Male; F344
Rat [4] = test: concentration in blood after dosing; conditions: 0.125 h; dosed: Benzophenone; 10 mg/kg; oral; Female; F344
Rat [5] = test: concentration in blood after dosing; conditions: 5 min; dosed: Benzophenone; 5 mg/kg; oral; Male; F344
Rat [6] = test: concentration in blood after dosing; conditions: 0.25 h; dosed: Benzophenone; 5 mg/kg; oral; Male; F344
Mouse [7] = test: concentration in plasma after dosing; conditions: 0.5 h; dosed: Benzophenone; 60 mg/kg; oral; Male; B6C3F1
Mouse [8] = test: concentration in plasma after dosing; conditions: 0.25 h; dosed: Benzophenone; 30 mg/kg; oral; Male; B6C3F1
Mouse [9] = test: concentration in plasma after dosing; conditions: 2.5 min; dosed: Benzophenone; 60 mg/kg; oral; Female; B6C3F1
Rat [10] = test: concentration in plasma after dosing; conditions: dosed: Benzophenone, 5 mg/kg, oral, Male, F344
Mouse [11] = test: concentration in plasma after dosing; conditions: 2 h; dosed: Benzophenone; 30 mg/kg; oral; Female; B6C3F1
Mouse [12] = test: concentration in plasma after dosing; conditions: 0.25 h; dosed: Benzophenone; 60 mg/kg; oral; Female; B6C3F1
Mouse [13] = test: concentration in plasma after dosing; conditions: 1 h; dosed: Benzophenone; 15 mg/kg; oral; Female; B6C3F1
Mouse [14] = test: concentration in plasma after dosing; conditions: 0.25 h; dosed: Benzophenone; 15 mg/kg; iv; Female; B6C3F1
Mouse [15] = test: concentration in plasma after dosing; conditions: 0.125 h; dosed: Benzophenone; 15 mg/kg; oral; Male; B6C3F1
Rat [16] = test: concentration in plasma after dosing; conditions: dosed: Benzophenone, 5 mg/kg, oral, Male, F344; remark: listed apart in the source
Rat [17] = test: concentration in plasma after dosing; conditions: dosed: Benzophenone, 5 mg/kg, oral, Male, F344; remark: listed apart in the source
Rat [18] = test: concentration in plasma after dosing; conditions: dosed: Benzophenone, 10 mg/kg, oral, Male, F344
Mouse [19] = test: concentration in plasma after dosing; conditions: 0.125 h; dosed: Benzophenone; 60 mg/kg; oral; Female; B6C3F1
Mouse [20] = test: concentration in plasma after dosing; conditions: 6 h; dosed: Benzophenone; 30 mg/kg; oral; Female; B6C3F1
Rat [21] = test: concentration in plasma after dosing; conditions: 16 h; dosed: Benzophenone; 10 mg/kg; oral; Female; F344
Mouse [22] = test: concentration in plasma after dosing; conditions: 10 min; dosed: Benzophenone; 60 mg/kg; oral; Male; B6C3F1
Mouse [23] = test: concentration in plasma after dosing; conditions: 2 h; dosed: Benzophenone; 15 mg/kg; iv; Female; B6C3F1
Mouse [24] = test: concentration in plasma after dosing; conditions: 8 h; dosed: Benzophenone; 30 mg/kg; oral; Male; B6C3F1
Mouse [25] = test: concentration in plasma after dosing; conditions: 3 h; dosed: Benzophenone; 30 mg/kg; oral; Female; B6C3F1
Mouse [26] = test: concentration in plasma after dosing; conditions: 10 min; dosed: Benzophenone; 30 mg/kg; oral; Male; B6C3F1
Rat [27] = test: concentration in plasma after dosing; conditions: dosed: Benzophenone, 10 mg/kg, oral, Female, F344
Mouse [28] = test: concentration in plasma after dosing; conditions: 4 min; dosed: Benzophenone; 15 mg/kg; iv; Female; B6C3F1
Mouse [29] = test: concentration in plasma after dosing; conditions: 2.5 h; dosed: Benzophenone; 15 mg/kg; iv; Female; B6C3F1
Mouse [30] = test: concentration in plasma after dosing; conditions: 1.5 h; dosed: Benzophenone; 15 mg/kg; iv; Male; B6C3F1
Mouse [31] = test: concentration in plasma after dosing; conditions: 1.25 h; dosed: Benzophenone; 15 mg/kg; iv; Male; B6C3F1
Mouse [32] = test: concentration in plasma after dosing; conditions: 5 min; dosed: Benzophenone; 60 mg/kg; oral; Male; B6C3F1
Mouse [33] = test: concentration in plasma after dosing; conditions: 0.25 h; dosed: Benzophenone; 30 mg/kg; oral; Female; B6C3F1
Mouse [34] = test: concentration in plasma after dosing; conditions: 4 min; dosed: Benzophenone; 15 mg/kg; iv; Female; B6C3F1; remark: listed apart in the source
Mouse [35] = test: concentration in plasma after dosing; conditions: 5 min; dosed: Benzophenone; 15 mg/kg; oral; Male; B6C3F1
Mouse [36] = test: concentration in plasma after dosing; conditions: 1 h; dosed: Benzophenone; 60 mg/kg; oral; Female; B6C3F1
Mouse [37] = test: concentration in plasma after dosing; conditions: 4 min; dosed: Benzophenone; 15 mg/kg; iv; Male; B6C3F1
Mouse [38] = test: concentration in plasma after dosing; conditions: 10 min; dosed: Benzophenone; 15 mg/kg; oral; Male; B6C3F1
Mouse [39] = test: concentration in plasma after dosing; conditions: 10 min; dosed: Benzophenone; 15 mg/kg; iv; Female; B6C3F1
Mouse [40] = test: concentration in plasma after dosing; conditions: 4 h; dosed: Benzophenone; 15 mg/kg; oral; Female; B6C3F1
Mouse [41] = test: concentration in plasma after dosing; conditions: 2 h; dosed: Benzophenone; 15 mg/kg; iv; Male; B6C3F1

O=C(c1ccccc1)c1ccccc1 [Benzophenone]
Conditions | concentration in blood [ng/mL] | concentration in plasma [ng/mL]
Mouse [7] | – | 1950
Mouse [8] | – | 990
Mouse [9] | – | 1420
Mouse [11] | – | 198
Mouse [12] | – | 31100
Mouse [13] | – | 187
Mouse [14] | – | 2400
Mouse [15] | – | 755
Mouse [19] | – | 1460
Mouse [20] | – | 26.7
Mouse [22] | – | 4500
Mouse [23] | – | 95.1
Mouse [24] | – | 13.3
Mouse [25] | – | 63.3
Mouse [26] | – | 1620
Mouse [28] | – | 5380
Mouse [29] | – | 46.2
Mouse [30] | – | 180
Mouse [31] | – | 351
Mouse [32] | – | 5330
Mouse [33] | – | 1500
Mouse [34] | – | 4820
Mouse [35] | – | 292
Mouse [36] | – | 663
Mouse [37] | – | 5410
Mouse [38] | – | 211
Mouse [39] | – | 2640
Mouse [40] | – | 33.7
Mouse [41] | – | 61.6
Rat [1] | 606 | –
Rat [2] | 859 | –
Rat [3] | 406 | –
Rat [4] | 2140 | –
Rat [5] | 314 | –
Rat [6] | 913 | –
Rat [21] | – | 39.4

Conditions | concentration in plasma [ng/mL]
Rat [10], 6 h | 52.6
Rat [10], 10 min | 231
Rat [16], 2 h | 120
Rat [16], 5 min | 101
Rat [17], 1 h | 144
Rat [17], 2.5 min | 34.3
Rat [18], 1 h | 227
Rat [18], 2.5 min | 28.4
Rat [27], 0.25 h | 427
Rat [27], 24 h | 28.7
